Data reported in PubChem BioAssay AID2685 (National Center for Advancing Translational Sciences (NCATS), 2010).
This is one part of the list. These are further read-outs of the screen, such as a control signal, another cell line or another target. No call is given for them. Most of these compounds were active or inconclusive in the main read-out, so they are no random draw. Potencies come from curve fits of mixed quality, noted in brackets.

Test: qHTS Assay for Lipid Storage Modulators in Drosophila S3 Cells;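 as to cell number change: cells counted by Cell Tracker Red CMTPX staining in the red channel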
Details: BODIPY lipid droplet fluorescence, 18-24 h; for cell number change: measured here: cell count max response, cells fed with added oleic acid
Summary of the method: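 Laser-scanning cytometry quantifies lipid droplet accumulation (500–530 nm total intensity; droplet/cell object ratio) in oleic acid-fed (400 uM added) Drosophila S3 cells treated with a concentration series. 20 uM Triacsin C defined 100% inhibition.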

[1] = measured here: cell number channel AC50, cells fed with added oleic acid
[2] = measured here: lipid fluorescence (Fed channel) AC50, cells fed with added oleic acid

Compound	AC50 [1]	cell number change	AC50 [2]
CCOc1ncccc1C(=O)Nc1nnc(C2CC2)s1	0.146 µM [rising, single point]	–	–
Cc1onc(-c2c(F)cccc2Cl)c1C(=O)Nc1sc2c(c1C(N)=O)CCC2	–	-0.594%	6.51 µM [rising, single point]
C[C@]12CCC(=O)C=C1[C@H](O)C[C@@H]1[C@@H]2[C@@H](O)C[C@@]2(C)[C@H]1CC[C@]2(O)C(=O)CO	–	10.5%	6.51 µM [falling, single point]
CCC1C2CN(C(C)=O)CC=C2C(C#N)=C(N)C1(C#N)C#N (configuration not stated)	–	-9.39%	14.6 µM [rising, single point]
CCOC(=O)c1sc(NC(=O)CCN2CC(C)OC(C)C2)c(C(=O)OCC)c1C (configuration not stated)	0.231 µM [rising, full curve, poor fit]	–	1.16 µM [rising, full curve]
O=C(Nc1cccc(S(=O)(=O)C(F)F)c1)c1ccc(S(=O)(=O)N2CCOCC2)cc1	–	-13%	–
CCOC(=O)c1sc2nc3c(cc2c1N)COC(C)(CC)C3 (configuration not stated)	–	20.2%	–
COC(=O)c1cnc(N2CCCN(S(=O)(=O)c3ccc(C(F)(F)F)cc3)CC2)nc1C(F)(F)F	0.058 µM [falling, full curve, poor fit]	-30.4%	18.4 µM [falling, partial curve]
O=C(C1CCCCC1)N1CCN=C1SCc1cccc([N+](=O)[O-])c1	–	-15%	–
Cc1ccc(Cn2c(-c3nonc3N)nc3ccccc32)cc1	0.411 µM [falling, single point]	-6.56%	–
COc1cccc(-c2nc(-c3ccccn3)no2)c1OC	1.03 µM [rising, full curve]	–	2.31 µM [rising, partial curve]
CC(C)OC(=O)CSc1nnc(-c2cnccn2)n1-c1ccc(Cl)cc1	23.1 µM [falling, single point]	-33.2%	29.1 µM [falling, single point]
Clc1ccc(-c2cnc3n2CCCCC3)cc1	0.461 µM [falling, single point]	-4.42%	–
Cc1csc2c(N3CCN(C(=O)Nc4ccc(Cl)c(Cl)c4)CC3)ncnc12	–	22.4%	23.1 µM [rising, single point]
Brc1ccc(C2=Nn3c(nnc3-c3n[nH]c4c3CCC4)SC2)cc1	–	-22.8%	20.6 µM [rising, partial curve]
CCN(CC)c1ccc(C2C3CCCCC3(O)CCN2CC(=O)Nc2ccccc2)cc1 (configuration not stated)	–	5.97%	14.6 µM [rising, partial curve]
CCOCC(=O)N1CCN(Cc2ccc3c(c2)OCO3)CC1	–	0.275%	29.1 µM [rising, single point]
COc1ccc(OCC(=O)Nn2c(-c3ccc(C)cc3)nc3ccccc3c2=O)cc1	–	0.37%	2.59 µM [falling, partial curve]
Cn1c(=O)oc2cc(S(=O)(=O)N3CCCC(C(=O)NCc4ccc5c(c4)OCO5)C3)ccc21 (configuration not stated)	11.6 µM [rising, single point]	37%	–
COc1ccc(C(=S)N2CCN(c3cccc(Cl)c3)CC2)c(OC)c1	5.8 µM [rising, full curve, poor fit]	50.2%	6.51 µM [rising, single point]

Compound	AC50 [1]	cell number change	AC50 [2]
O=S(=O)(Nc1nc2ccc(S(=O)(=O)N3CCCC3)cc2s1)c1ccc(F)cc1	–	6.75%	1.84 µM [falling, partial curve]
COc1ccc(NC(=S)NC(NC(=O)c2cccc3ccccc23)C(Cl)(Cl)Cl)c([N+](=O)[O-])c1 (configuration not stated)	4.11 µM [rising, full curve]	64.8%	–
O=C(NCCNC(=O)c1ccccc1Cl)c1ccco1	–	8.11%	–
O=C(CN1C(=O)NC2(CCCC2)C1=O)N1CCCSC1=Nc1ccccc1	–	-8.96%	0.146 µM [rising, full curve]
Cc1cc(S(=O)(=O)Nc2ccccc2C(=O)O)ccc1Cl	–	10.3%	3.66 µM [rising, single point]
CCC(C)c1ccccc1NC(=O)C(C)N(C)Cc1cccc(OC)c1 (configuration not stated)	–	22.7%	–
COc1ccccc1/C=C/C(=O)NCC(=O)N/N=C/c1cccnc1	7.31 µM [falling, partial curve, poor fit]	-38.1%	–
CCCCOC(=O)Nc1nnc(CCOCC)s1	–	8.93%	0.82 µM [falling, full curve, poor fit]
O=C(c1ccc([N+](=O)[O-])cc1)N(Cc1ccc(Cl)cc1Cl)N1C(=O)CCCC1=O	–	11.8%	–
COc1ccc(Cn2c(=O)[nH]c3cc(C(=O)NCCc4ccc(S(N)(=O)=O)cc4)ccc3c2=O)cc1	–	-38.2%	–
CCO[C@@H]1OC(C(=O)NCc2nc3ccccc3[nH]2)=C[C@H](C2CCCCC2)[C@H]1CCCO	14.6 µM [falling, partial curve]	-42.9%	14.6 µM [falling, partial curve]
CCC(C)c1ccc(OCC(=O)Nc2ccc(Cl)cn2)cc1 (configuration not stated)	13 µM [falling, partial curve]	-53.8%	–
O=C(c1cnn(C(=O)c2cccc(S(=O)(=O)N3CCOCC3)c2)c1)c1ccccc1O	–	62%	6.51 µM [falling, single point]
CCOc1ccc(-c2csc(/C(C#N)=C\c3ccc(O)c([N+](=O)[O-])c3)n2)cc1	32.6 µM [falling, single point]	-55.1%	25.9 µM [falling, partial curve, poor fit]
On1c(-c2ccccc2)nc2ccc(Cl)cc21	–	-24.3%	–
CCCCn1c(N)c(N(CCOC)C(=O)CN(C)S(=O)(=O)c2ccc(Cl)cc2)c(=O)[nH]c1=O	–	9.73%	2.06 µM [falling, partial curve]
CCn1c2ccccc2c2cc(NC(=O)CNCc3ccccc3OC)ccc21	–	-21.9%	0.206 µM [rising, single point]
CCC1(O)c2ccccc2-c2ncccc21 (configuration not stated)	29.1 µM [rising, single point]	137%	–
COc1ccc(C2CC(c3ccccc3)=NN2C(=S)Nc2ccccc2)cc1 (configuration not stated)	–	15.5%	10.3 µM [falling, partial curve, poor fit]
CC(Sc1ccccc1)C(=O)Nc1cccc(N(C)S(C)(=O)=O)c1 (configuration not stated)	0.259 µM [rising, full curve, poor fit]	35.1%	32.6 µM [rising, single point]

Part of the list above, field by field.
CCC(C)c1ccc(OCC(=O)Nc2ccc(Cl)cn2)cc1 (configuration not stated)
  AC50 [1]: 13 µM [falling, partial curve]
  cell number change: -53.8%
O=C(c1cnn(C(=O)c2cccc(S(=O)(=O)N3CCOCC3)c2)c1)c1ccccc1O
  cell number change: 62%
  AC50 [2]: 6.51 µM [falling, single point]
CCOc1ccc(-c2csc(/C(C#N)=C\c3ccc(O)c([N+](=O)[O-])c3)n2)cc1
  AC50 [1]: 32.6 µM [falling, single point]
  cell number change: -55.1%
  AC50 [2]: 25.9 µM [falling, partial curve, poor fit]
On1c(-c2ccccc2)nc2ccc(Cl)cc21
  cell number change: -24.3%

(list continues)

Compound	AC50 [1]	cell number change	AC50 [2]
CCCn1c(SCC(=O)Nc2ccc(NC(=O)CC)cc2)nc2c1c(=O)n(C)c(=O)n2C	6.51 µM [rising, single point]	15.7%	–
COC(=O)c1ccccc1C(=O)N1CCCC(C(=O)c2ccc(OC)c(OC)c2)C1 (configuration not stated)	25.9 µM [falling, partial curve]	-36.8%	18.4 µM [falling, partial curve, poor fit]
Cc1cc(=O)[nH]c(SCCCOc2ccc(F)cc2)n1	0.103 µM [falling, full curve]	–	1.16 µM [falling, full curve]
Cc1ccccc1NC1=C/C(=N\S(=O)(=O)c2cccs2)c2ccccc2C1=O	10.3 µM [falling, partial curve]	-88.7%	16.4 µM [falling, partial curve]
COCCN(C(=O)Cn1nnc2ccccc21)C(C(=O)NC1CCCC1)c1ccc(OC)cc1OC (configuration not stated)	–	-16.3%	29.1 µM [falling, single point]
CC1CCN(CCCNS(=O)(=O)c2ccc3c(c2)CCN3C(=O)C2CC2)CC1	1.64 µM [rising, partial curve, poor fit]	–	–
CCOP(=O)(c1ccc(N(C)C)cc1)C(O)c1ccc(Cl)cc1 (configuration not stated)	3.66 µM [falling, full curve, poor fit]	-23.8%	6.51 µM [falling, single point]
COc1cccc(-c2nc3sc4c(c3c(=O)[nH]2)CCCCC4)c1	–	3.69%	6.51 µM [falling, full curve]
Cc1ccc(NC(=S)NC2CCCC2)c(C)c1	–	23.6%	–
Cn1c2ccc(F)cc2c2nnc(SCCN3CCCCC3)nc21	–	-23.6%	0.731 µM [falling, partial curve, poor fit]
CC(C)N=C(NC#N)SCc1ccccc1	–	-6%	–
Cc1ccc(-c2noc(CCC(=O)NCc3ccccc3CN3CCOCC3)n2)cc1	–	-17.9%	1.46 µM [rising, partial curve]
CC(/C=N\N1CCN(c2ccc(Cl)cc2)CC1)=C\c1ccccc1	1.84 µM [falling, partial curve, poor fit]	–	–
CCOc1ccc(NC(=O)CSc2nc3ccccc3nc2N2CC(C)OC(C)C2)cc1 (configuration not stated)	–	-29.1%	29.1 µM [falling, partial curve, poor fit]
COc1ccc(OC)c(CNn2c(-c3cccc(C)c3)nc3ccccc3c2=O)c1	–	–	0.58 µM [rising, single point]
O=C(C1=C(O)C(=O)N(Cc2ccccc2)C1c1ccncc1)c1ccco1 (configuration not stated)	–	1.32%	1.03 µM [falling, full curve, poor fit]
Cc1ccc(NC2=NCC(=O)N2C2CCCC2)cc1	6.51 µM [falling, single point]	16.2%	1.84 µM [falling, partial curve, poor fit]
CC(C)CNS(=O)(=O)c1ccc(CCC(=O)Nc2ccc3c(c2)OCO3)cc1	–	10.9%	2.59 µM [rising, partial curve, poor fit]
